# Screening data

Source: PubChem BioAssay AID1159506 (NCATS, 2015).

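Genome-wide siRNA knockdown in TC32 Ewing sarcoma cells, comparing luciferase light from an NR0B1-promoter reporter with a CMV-promoter reporter 48 hours after transfection. Each siRNA was applied at 20 nM. A z-score of the log NR0B1-over-CMV signal, less the median of siRNAs with the same seed; more negative means a stronger specific loss of the NR0B1 reporter.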

This is part of the screen; most of the strongest results are not listed here. Sequences are the guide (antisense) strand, without overhang.

siRNA | target gene | seed-corrected z-score
UAGCCGGUCAGAACCCUUG | FNDC4 | -0.02312
UCAAAUCCUAUGAGUACUC | WIF1 | -0.4792
UUCGCCUUCACAUAAUGCC | SMC5 | -0.3547
UUUAGCACGAGGAAUAUUU | BRSK1 | 0.9092
UGAAUUCCACUUGCAGCCC | NR1H3 | -0.1455
UCAUAUGUCUCCUUGAUGC | FMNL3 | 0.87
UUUCAUAGUAGUGUCCUGG | ARHGAP23 | 0.8287
UCAAUGGGCACAAAGUUCU | FAM195A | 0.4764
UGUCGAAAGAGGUUAGUGC | ZNF530 | -0.7418
UCAUGGGACACCUCAUACU | CPNE7 | -0.02087
UUAAGUCUUCACGAGAUUC | PPP1R21 | 0.4071
AUCCGUUGUACACUCCUGC | CICP26 | 1.107
AGCUAGAUACUUAUAGGCC | CCDC22 | 0.8694
UGUUCUUCCGCACUUCUUC | STMN1 | 0.005157
AACAGGGAUAGCGAGUUCC | GSDMD | -1.366
UCUCGGCAAAUAGCUCGUC | RAP2B | 0.3399
AAUUGAUUUGAUAUCCUUC | TCF4 | 0.02174
UUACUGACCAGGGAUACCC | BCAS2 | 0.6185
UGCGUCACUAGGAACAUGC | LGALS8 | -1.224
UGUACCAUAACUCCCAUAC | FIP1L1 | 0.7597
UUGGAUAUCUCCGAGAGGC | CCDC140 | 0.1385
UCCCAGUCCAGCAUAGCUC | FAM86C1 | 0.03605
UUCUCGGGAAGCAUGAUGC | LPAR2 | 0.6845
UGUAGAUCUCGAUUGCUCG | NAPA | -0.2449
UACUUGAACAGCGAACUUG | MRPL45 | 0.1374
AAACUGAUCCAGGUAUUUC | ATP2C2 | -0.5058
UUCUGUACCCUCGAGUCUG | UNC45B | -0.005078
ACUGAUUCCACCAUGUCCG | VAT1 | 0.5516
UUGGUCACUAUGCAGAUCC | PSMB1 | -0.3366
AUCAGUUCGAGUUUGCUCA | FAM131B | 0.5585
UCGUCUUUUGUCAUCAUCG | GUCY2C | 0.9737
UUCCGGUUGACAAUGACGG | SLC4A5 | 0.1059
AUCCCGAUUAAGUAGCUCC | ANGEL1 | -0.2066
UAUGGUCGGACAACAGAUG | MFSD13A | -0.4867
UGCGUUCCAAGUCUCCUUC | TPM3 | -0.05327
UUAAUAAGCAGGGUGCCUC | CBARP | 0.5923
UAAUAGUCAGGAUUAGUAG | TBC1D8B | -0.03977
UUAGUUAUCCUUAAGGAGC | NTRK2 | -0.32
UUACAUAAUAGUAUCUGAG | ELK4 | 0.07595
UUCUUUUUGAGAUCUGGUA | CCR5 | -0.04142
UGGGUGAUUACAGUACUUG | ATF2 | 0.04223
UCCUUCAAUAGGAAUCUCU | TRIAP1 | -0.04501
UAAGAGACAGCAGGUUAGG | ZNF646 | -0.1949
UACUUUGCUCCAUCGAGAC | TCERG1 | -1.749
AACGGACCAAAUACACGGC | NCBP1 | -1.081
UUCAGUACAAAAUUCAGUC | CLCA3P | 0.6995
UUGGUAUUUGAUCCAGCCC | TMEM174 | 1.589
UGAGAUGCGAGUUGAGCCG | CAV2 | 0.195
UUUUGGUGAAAGGAGAUCU | N6AMT1 | 0.4838
UCCGGAAGCAGCACUCAUC | IGF1 | 0.01067
AAACUGAGUAACCCAGGCC | DDX12P | -1.011
UUAGGUACUUGUUUGGAAA | CKS2 | -0.3677
UUCAUAGCAAGUGGUCUGG | GATA6 | -1.732
UCUGGUUCUACCAGUAUGU | GINS4 | -1.523
UCGUGGAACAGGUAAAGCU | MRPS17 | -0.001705
AAAAGCAACAGAACUGAUG | TMEM218 | -0.5423
UGGGUUGUCACAGUCGUAG | GRIN2B | -0.8369
UGAACAUCUGCUUAUGUCC | SPG11 | 0.239
UUUGGAGUGGUAGAAAUCU | CDKN1A | -0.2932
UACAUGAACACGGCGGCAC | OR2Z1 | 0.2793
AAUCUGACUCCAUCAAUGG | POLD2 | -1.321
UUGGGCAUCAACACCAGCU | SCARB1 | -0.1516
UACUGGUCAAAGGCAUUGU | CAPZB | 0.5008
AAACACUCAAGAAACAAGG | TBXA2R | 0.2594
UGUAGAGUACCUUAUAUCC | CNTN1 | -0.1472
UCUUUUGAUACAGCAACUC | MR1 | 0.5619
AAUGGUUACAGUCACAAAC | CTBP1 | -0.3837
AUAGUAGCUGUUGUGGAGG | CCNG2 | -1.006
UUGCCGACAUAUAAAGUCC | EMC2 | 0.371
UUUGGUAAUAUACUCCCUU | GATAD1 | 0.6034
UUUUGGUUUCACGUACUUC | RPN1 | 0.5559
UUUACUAGAACCAUGAGGC | E2F2 | 0.03927
UAGGGUUGAACGAACACUG | ZNF665 | 0.5952
UACUCGAUAGCUCAGGACC | GSDMB | 0.9438
AAAGGAUACUCCAAGUUGU | ZNF480 | 0.3727
UAUACUUUUCUACUAAAGC | MSANTD3 | 0.03
UAUGGAUGAAUCACAUCUC | STEAP2 | 1.041
AACUGAUCAAGAUCUGAUG | NKTR | -0.3515
AAUCCAAUUGGAAAUCAGC | ARHGEF35 | 0.1338
UCUUGUUCUGUCAUUAUGG | ARHGEF3 | 1.162

Some entries from above, unchanged:

siRNA	target gene	seed-corrected z-score
UCAUAUGUCUCCUUGAUGC	FMNL3	0.87
UGAAUUCCACUUGCAGCCC	NR1H3	-0.1455
UCAAAUCCUAUGAGUACUC	WIF1	-0.4792
UUUGGAGUGGUAGAAAUCU	CDKN1A	-0.2932
AUCAGUUCGAGUUUGCUCA	FAM131B	0.5585
ACUGAUUCCACCAUGUCCG	VAT1	0.5516
UAGCCGGUCAGAACCCUUG	FNDC4	-0.02312